Here are results for 1 molecule from article PMC4822561.

These are yes or no findings as the source states them, for the method shown. Some entries that bind do so weakly or less than the wild type.

The assay addresses T1, K. pneumoniae topoisomerase IV ParC breakage-reunion domain (ParC55; residues 1–490) (K. pneumoniae (strain ATCC 35657)).
T1 sequence: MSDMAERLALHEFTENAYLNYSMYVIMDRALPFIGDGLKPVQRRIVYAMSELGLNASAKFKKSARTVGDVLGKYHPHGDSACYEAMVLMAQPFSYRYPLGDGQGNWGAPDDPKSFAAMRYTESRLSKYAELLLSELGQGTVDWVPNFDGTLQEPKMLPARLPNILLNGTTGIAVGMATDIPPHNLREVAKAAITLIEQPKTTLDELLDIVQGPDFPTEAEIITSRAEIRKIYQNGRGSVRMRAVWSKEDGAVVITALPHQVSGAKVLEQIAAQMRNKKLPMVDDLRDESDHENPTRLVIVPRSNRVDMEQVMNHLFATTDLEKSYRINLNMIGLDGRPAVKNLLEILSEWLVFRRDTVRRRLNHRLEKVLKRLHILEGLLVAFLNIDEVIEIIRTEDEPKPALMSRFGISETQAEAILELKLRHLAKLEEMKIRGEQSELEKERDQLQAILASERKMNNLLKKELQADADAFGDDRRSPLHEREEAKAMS
The assay can be described thus: crystal structure; K. pneumoniae ParE-ParC fusion (4.5 mg/ml) co-crystallised with pre-cut 34-mer E-site DNA (1:1.2 protein:DNA), 2 mM levofloxacin, 10 mM MgCl2; vapour diffusion, 298 K; 3.35 Å, space group P2(1); both purified.

B1: K. pneumoniae topoisomerase IV ParE TOPRIM domain (ParE30; residues 390–631) (domain or fragment)
chain: KKLTSGPALPGKLADCTAQDLNRTELFLVEGDSAGGSAKQARDREYQAIMPLKGKILNTWEVSSDEVLASQEVHDISVAIGIDPDSDDLSQLRYGKICILADADSDGLHIATLLCALFVRHFRTLVKEGHVYVALPPLYRIDLGKEVYYALTEEEKTGVLEQLKRKKGKPNVQRFKGLGEMNPMQLRETTLDPNTRRLVQLVISDEDEQQTTAIMDMLLAKKRSEDRRNWLQEKGDMADLEV
On to B1, for which the binding entry is “binds”.
